Data source: PubChem BioAssay AID1671195 (Yale University, 2021)

- Assay: 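Knockdowns that increase or decrease uptake of fluorescent LDL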 (primary screen)
- Cells: human Huh7 hepatoma cells
- Reagent: siRNA pool against human genes, 18 nM
- Time to read-out: about 2 to 2.5 days of knockdown, then 8 h LDL uptake
- Treatment: DiI-labelled LDL at 30 µg/ml for 8 h, in lipoprotein-deficient serum medium
- Measured: 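Fluorescent LDL signal imaged in cells, scaled to the plate median, robust z-score for each replicate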
- Reading the numbers: robust z-score: higher = more LDL uptake after knockdown
- Hit rule: 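Active when two or more replicates show a robust z-score above 2 or below -2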
Shown is a random part of about 22,000 reagents tested. About 1,510 of them (6.9%) count as active. 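Active includes knockdowns raising or lowering LDL uptake; positive z-scores mean more uptake, negative mean less.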 No sequences are given here.

After knock-down of CYP1A2 (cytochrome P450 family 1 subfamily A member 2) [SID442890413] the results were robust z-score, replicate 1 = 0.806; robust z-score, replicate 2 = -0.206; robust z-score, replicate 3 = 0.66; inactive.
Against IGF2R (insulin like growth factor 2 receptor) [SID442892891], the values are robust z-score, replicate 1 = 0.0225; robust z-score, replicate 2 = 0.192; robust z-score, replicate 3 = 0.126; inactive.
OR2T1 (olfactory receptor family 2 subfamily T member 1) [SID442896870] scored robust z-score, replicate 1 = 0.945; robust z-score, replicate 2 = -0.683; robust z-score, replicate 3 = -1.23; inactive.
Against LOC440613 (retired record) [SID442892317], the values are robust z-score, replicate 1 = 0.0315; robust z-score, replicate 2 = 0.0398; robust z-score, replicate 3 = 0.477; inactive.
Depletion of ATP6V0D1 (ATPase H+ transporting V0 subunit d1) [SID442892798] gave: robust z-score, replicate 1 = -0.25; robust z-score, replicate 2 = 0.351; robust z-score, replicate 3 = 0.267; inactive.
IFIT5 (interferon induced protein with tetratricopeptide repeats 5) [SID442894090] showed robust z-score, replicate 1 = 0.0597; robust z-score, replicate 2 = -0.0101; robust z-score, replicate 3 = -0.126; inactive.
TP53I3 (tumor protein p53 inducible protein 3) [SID442885410] showed robust z-score, replicate 1 = 1.13; robust z-score, replicate 2 = 1.99; robust z-score, replicate 3 = 1.44; inactive.
LOC399786 (retired record) [SID442900312] scored robust z-score, replicate 1 = -0.857; robust z-score, replicate 2 = -0.507; robust z-score, replicate 3 = -0.868; inactive.

Reformatted: entries from further up.
gene symbol | PubChem SID | robust z-score, replicate 1 | robust z-score, replicate 2 | robust z-score, replicate 3 | Outcome
ATP6V0D1 (ATPase H+ transporting V0 subunit d1) | SID442892798 | -0.25 | 0.351 | 0.267 | inactive
IFIT5 (interferon induced protein with tetratricopeptide repeats 5) | SID442894090 | 0.0597 | -0.0101 | -0.126 | inactive

Next reagents follow:
With knock-down of CAMK2B (calcium/calmodulin dependent protein kinase II beta) [SID442894714], the screen gave robust z-score, replicate 1 = -0.261; robust z-score, replicate 2 = -0.473; robust z-score, replicate 3 = 0.455; inactive.
Depletion of PDE4B (phosphodiesterase 4B) [SID442895240] came out at: robust z-score, replicate 1 = 0.603; robust z-score, replicate 2 = -1.64; robust z-score, replicate 3 = 0.595; inactive.
TMEM167A (transmembrane protein 167A) [SID442886646] scored robust z-score, replicate 1 = 1.47; robust z-score, replicate 2 = 0.261; robust z-score, replicate 3 = 1.57; inactive.
For RND1 (Rho family GTPase 1) [SID442887049] the deposit lists robust z-score, replicate 1 = 2.11; robust z-score, replicate 2 = -0.0757; robust z-score, replicate 3 = 0.957; inactive.
